From publication PMC11666741
No constants are given. Whether binding was seen depends on the method and setting. For some of these results: A result given as binding can be weak or reduced; the word gives no strength. Sequences can lack the tags named with a protein. Blank lines part the entries; values can stand above or below the molecule they belong to.

Key:
[1] = molecular target: T1, VQ10 (VQ motif-containing protein 10), yeast two-hybrid fusion (Arabidopsis thaliana) (UniProt Q8VYI5); test: two-hybrid; Matchmaker Gold mating system: Y2HGold with GAL4-BD baits mated with Y187 with GAL4-AD preys; diploids on SD/QDO (-Ade/-His/-Leu/-Trp); empty BD or AD clones as controls
T1 sequence: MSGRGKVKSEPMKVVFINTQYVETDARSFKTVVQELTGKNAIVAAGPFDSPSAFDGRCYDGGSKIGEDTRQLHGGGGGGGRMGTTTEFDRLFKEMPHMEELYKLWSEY

[2] = molecular target: T2, VQ1 (VQ motif-containing protein 1), yeast two-hybrid fusion (Arabidopsis thaliana) (UniProt Q1G3U8); test: as above
T2 sequence: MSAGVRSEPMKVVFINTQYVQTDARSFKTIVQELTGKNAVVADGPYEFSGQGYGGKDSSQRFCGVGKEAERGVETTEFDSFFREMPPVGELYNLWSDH

[3] = molecular target: T1, VQ10 (VQ motif-containing protein 10), yeast two-hybrid fusion (Arabidopsis thaliana); test: condition: only in the orientation BD-VQ10 with AD-VQ27; two-hybrid; Matchmaker Gold mating system: Y2HGold with GAL4-BD baits mated with Y187 with GAL4-AD preys; diploids on SD/QDO (-Ade/-His/-Leu/-Trp); empty BD or AD clones as controls
[4] = molecular target: VQ27, yeast two-hybrid fusion (Arabidopsis thaliana); test: two-hybrid; Matchmaker Gold mating system: Y2HGold with GAL4-BD baits mated with Y187 with GAL4-AD preys; diploids on SD/QDO (-Ade/-His/-Leu/-Trp); empty BD or AD clones as controls

Molecule: VQ32, yeast two-hybrid fusion (Arabidopsis thaliana)
- binding [1]: binds
- binding [2]: binds

B1: VQ10 (VQ motif-containing protein 10), yeast two-hybrid fusion (protein, UniProt Q8VYI5 1-108)
chain: MSGRGKVKSEPMKVVFINTQYVETDARSFKTVVQELTGKNAIVAAGPFDSPSAFDGRCYDGGSKIGEDTRQLHGGGGGGGRMGTTTEFDRLFKEMPHMEELYKLWSEY
- binding [4]: binds

Next, values leading:

- binding [1]: binds
- binding [2]: binds
Molecule: VQ24, yeast two-hybrid fusion (Arabidopsis thaliana)

- binding [3]: no binding
- binding [2]: binds
Molecule: VQ27, yeast two-hybrid fusion (Arabidopsis thaliana)
